# Measurements: the supplement of paper PMC3334620
# Whole data set: some 33,000 sequences, median “E-score (-0.5 to 0.5)” near -0.0059, cut for the highest 2% near 0.26. Some of the results follow.
# Biological target: T1, Cin5 (UniProt P40917)
# T1 sequence: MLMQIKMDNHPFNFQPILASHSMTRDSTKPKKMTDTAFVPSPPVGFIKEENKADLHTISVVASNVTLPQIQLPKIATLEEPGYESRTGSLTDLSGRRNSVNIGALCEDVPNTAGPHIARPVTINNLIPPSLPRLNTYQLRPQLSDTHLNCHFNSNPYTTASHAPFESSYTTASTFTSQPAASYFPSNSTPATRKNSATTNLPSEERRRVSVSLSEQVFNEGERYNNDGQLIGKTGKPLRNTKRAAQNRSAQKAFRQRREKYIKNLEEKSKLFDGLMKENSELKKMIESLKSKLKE
# Assay: PBM E-score (8-mer binding enrichment) (E-score (-0.5 to 0.5)); higher = stronger / more preferred TF binding
# Conditions: protein concentration: 100 nM; construct: GST-full length
# Method in brief: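 Detection of bound protein used fluorescent anti-GST, with scans normalised by masliner. The proteins were GST-tagged yeast transcription factors applied at about 100-200 nM to universal all-10-mer Agilent arrays made double-stranded by primer extension. Each ungapped eight-base word, pooled with its reverse complement, was scored with an E-score from the Universal PBM Analysis Suite.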
row,Sequence,PBM E-score
1,AAGGCCTG,-0.231
2,GGTTTACA,0.0584
3,AGTAACGC,-0.155
4,AAACATGC,0.0556
5,ATTAGCTG,0.0626
6,AAAGTTTA,0.0887
7,TAATTACA,0.259
8,CGGGCGCA,-0.113
9,GATGAAAC,0.107
10,CTGAAATA,0.143
11,AACCTTCC,-0.0147
12,CAGAAACG,0.157
13,GCGTCACC,-0.292
14,ATCGAAAA,0.0865
15,CCGATGTA,-0.0591
16,CTTCTACC,-0.186
17,ATAGCCAC,-0.0146
18,ACATAGGC,0.0747
19,AGACCGTC,-0.25
20,CCTCCGCG,0.0153
21,TATAGAAA,0.0629
22,AAAGTACC,0.131
23,AATATCAG,0.171
24,ACTATAGT,0.174
25,GTTCGCAA,0.157

row,Sequence,PBM E-score
1,CTGCGGCC,-0.149
2,CTGCGGGC,-0.0788
3,GGCCCCCC,-0.441
4,GAAATAGA,0.181
5,GTCTCGCA,-0.191
6,GAAGTACC,0.0459
7,CAGTCGTA,-0.174
8,AATCGGGT,0.241
9,ACAACACC,0.084
10,CTTAAAAC,0.0781
11,CGCCGGCG,0.235
12,CGCTAGAC,-0.281
13,CATTAAAG,0.155
14,TGCGAACA,0.101
15,ATCGCTAG,-0.0029
16,GGGGAAGA,-0.179
17,AAAATGAG,0.11
18,CACTGTGC,-0.0303
19,CACAGGGG,-0.237
20,AATGACGG,0.157
21,CCTGTCGA,-0.135
22,CTGGTAAC,-0.0333
23,ACCATCCC,0.0299
24,ACTCCAAA,0.0287
25,CTTCCCTA,-0.16

row,Sequence,PBM E-score
1,AGTTGCCA,-0.108
2,ACCACACC,-0.15
3,CTGCTAAC,-0.0283
4,AAGGAGGT,-0.26
5,GGGACCCC,-0.26
6,AGCCGCTG,-0.188
7,ACCCGTGA,-0.165
8,CACCTTCA,-0.0454
9,CAAGTACC,-0.1
10,ACGGAGTG,0.118
11,AGCGCCAT,-0.22
12,AACTCTAG,0.0483
13,AGATCCCT,-0.0979
14,AGGTCGGC,-0.21
15,CTCCTCGC,-0.222
16,AGCCGCTC,-0.0337
17,ATATGCGG,0.148
18,AAACTCGT,0.105
19,CCCTTCAA,-0.141
20,ACTCGAGC,0.0394
21,TAGGAGAA,-0.171
22,AAATCGGT,-0.126
23,AGTATTTC,0.178
24,TATGTGGA,0.194
25,ATGACCGG,-0.144

row,Sequence,PBM E-score
1,GATTCTCC,-0.134
2,CCCCTGAC,-0.0686
3,GTGGATTA,0.212
4,AGCAGGAC,-0.0639
5,CACTCAGA,0.129
6,AACGATCA,-0.0455
7,AAACTGAG,-0.105
8,CAGTTAGC,-0.17
9,GTGGCCGA,0.00156
10,ACTAGGAT,-0.0757
11,CCCGTACC,-0.125
12,AATCTGGG,-0.0792
13,ATAAGCGG,0.206
14,GCACCCAC,0.145
15,AAGGGGAA,-0.208
16,AGCTAGGA,-0.047
17,AACAGACT,0.138
18,CAGTGGTA,-0.0983
19,CCCCGAAC,-0.091
20,AGTAGAAG,0.0295
21,AAGACAGT,0.0215
22,ACAGGGGC,-0.138

# As a working copy, some entries already given.
row,Sequence,PBM E-score
22,AAATCGGT,-0.126
23,AGTATTTC,0.178
24,TATGTGGA,0.194
25,ATGACCGG,-0.144
1,GATTCTCC,-0.134
2,CCCCTGAC,-0.0686
3,GTGGATTA,0.212
4,AGCAGGAC,-0.0639
5,CACTCAGA,0.129
6,AACGATCA,-0.0455
7,AAACTGAG,-0.105
8,CAGTTAGC,-0.17
9,GTGGCCGA,0.00156
10,ACTAGGAT,-0.0757
11,CCCGTACC,-0.125
12,AATCTGGG,-0.0792
13,ATAAGCGG,0.206
14,GCACCCAC,0.145
15,AAGGGGAA,-0.208
16,AGCTAGGA,-0.047
17,AACAGACT,0.138
18,CAGTGGTA,-0.0983
19,CCCCGAAC,-0.091
